Laboratory results: publication PMC6969153
These are yes or no findings as the source states them, for the method shown. In cells and extracts the contact can be indirect. Some entries that bind do so weakly or less than the wild type. One block for each substance: values may come before it.

Amino acid sequences for entries named in this document (tags omitted).
UniProt Q14145: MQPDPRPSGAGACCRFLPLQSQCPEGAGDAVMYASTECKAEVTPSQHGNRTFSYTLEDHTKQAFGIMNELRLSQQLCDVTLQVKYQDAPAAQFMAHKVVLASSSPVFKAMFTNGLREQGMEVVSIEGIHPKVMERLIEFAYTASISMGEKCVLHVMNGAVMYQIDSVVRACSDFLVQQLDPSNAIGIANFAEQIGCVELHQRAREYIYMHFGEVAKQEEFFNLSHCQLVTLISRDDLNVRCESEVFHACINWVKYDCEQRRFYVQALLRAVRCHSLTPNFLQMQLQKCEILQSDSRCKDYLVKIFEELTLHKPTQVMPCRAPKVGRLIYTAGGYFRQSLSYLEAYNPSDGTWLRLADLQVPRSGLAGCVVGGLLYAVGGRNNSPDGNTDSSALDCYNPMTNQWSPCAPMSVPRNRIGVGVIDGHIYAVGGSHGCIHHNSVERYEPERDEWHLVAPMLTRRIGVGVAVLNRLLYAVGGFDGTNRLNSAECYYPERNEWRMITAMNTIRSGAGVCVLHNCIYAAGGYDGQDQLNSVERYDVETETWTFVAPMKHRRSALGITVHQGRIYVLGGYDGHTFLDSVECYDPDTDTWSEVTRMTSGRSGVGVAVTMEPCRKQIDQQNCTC
UniProt Q14258: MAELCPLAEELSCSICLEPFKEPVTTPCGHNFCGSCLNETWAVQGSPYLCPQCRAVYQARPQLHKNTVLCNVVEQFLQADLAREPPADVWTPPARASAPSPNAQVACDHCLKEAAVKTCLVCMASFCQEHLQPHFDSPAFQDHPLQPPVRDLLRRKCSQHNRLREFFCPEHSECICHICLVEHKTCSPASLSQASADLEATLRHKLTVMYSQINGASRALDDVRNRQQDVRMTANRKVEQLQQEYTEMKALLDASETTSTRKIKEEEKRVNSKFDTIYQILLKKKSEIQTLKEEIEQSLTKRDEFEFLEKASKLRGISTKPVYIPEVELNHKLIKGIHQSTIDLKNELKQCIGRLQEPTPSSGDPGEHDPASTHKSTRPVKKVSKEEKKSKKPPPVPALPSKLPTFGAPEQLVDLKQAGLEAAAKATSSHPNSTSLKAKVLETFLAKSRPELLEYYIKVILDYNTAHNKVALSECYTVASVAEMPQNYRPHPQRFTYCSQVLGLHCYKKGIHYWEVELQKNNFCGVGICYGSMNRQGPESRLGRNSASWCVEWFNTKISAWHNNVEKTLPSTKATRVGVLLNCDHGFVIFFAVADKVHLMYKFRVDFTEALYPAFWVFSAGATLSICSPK

Tests used:
[1] = target: GST-Keap1 (UniProt Q14145); assay: pull-down; in vitro GST pulldown, GST-Keap1 (GST as control) with F-TRIM25
[2] = target: Keap1, transfected in Huh7 cells (Fig. 3q) (UniProt Q14145); assay: co-IP; Huh7 cells transfected with the indicated plasmids (TRIM25, Keap1 and Keap1 mutants); HA-IP and immunoblot
[3] = target: Keap1 (endogenous) (human (endogenous in HCT116 and Huh7)) (UniProt Q14145); assay: co-IP; endogenous TRIM25 and Keap1 in HCT116 and Huh7 cells, treated with or without TG (1 uM) for 12 h

- binding [1]: binds
Substance: Flag-TRIM25 (in vitro GST pulldown) (from UniProt Q14258 1-630)

- binding [2]: binds
Substance: TRIM25, full-length, overexpressed in Huh7 cells (from UniProt Q14258 1-630)

- binding [3]: binds
Substance: TRIM25 (endogenous) (from UniProt Q14258 1-630)
